# Percent effect of library compounds

Data taken from ChEMBL document CHEMBL3988442, “University of Dundee, Small-Polar-MMV Screening Library” (2021).

A: 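Whole-cell growth test on Mycobacterium tuberculosis, read after 4 days in a medium based on cholesterol and the lipid DPPC; the read-out is not stated. Tested at 50 µM. Higher reads as more growth inhibition (inferred: compounds with an IC50 in retests scored well above the rest). Of about 69,000 compounds tested this way, about 370 (0.54%) reached 50% or more in at least one test.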
B: 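Whole-cell growth test on Mycobacterium tuberculosis, read after 3 days in glucose-containing 7H9 medium; the read-out is not stated. Compounds at 50 µM. The record gives no direction; compounds that gave an IC50 in retests scored well above the rest, so higher reads as more growth inhibition. Of about 69,000 compounds tested this way, about 760 (1.1%) reached 50% or more in at least one test.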

Values are the deposited “Percent Effect”, in %.
How 0% and 100% were set is not recorded. Most values in the screen are low, and negative values occur.
The compounds are a random part of those screened.
Two or more numbers in one place are separate tests of the same structure; such repeats can differ widely.

{"compound": "Cc1nc(CN(C)C2CCN(Cc3ccc(C(N)=O)cc3)C2)no1", "stereo": "centres unmarked", "A": -22.42, "B": 19.43}
{"compound": "CCC1c2ccsc2CCN1Cc1cc2c(cc1OC)OCCO2", "stereo": "centres unmarked", "A": 2.157, "B": 13.19}
{"compound": "Cc1ccc(-c2noc(CN3CCC(c4ccn[nH]4)CC3)n2)cc1", "A": "11.08 & 9.409", "B": 4.212}
{"compound": "Cc1occc1C(=O)N1CCn2cnc(COCC3CC3)c2C1", "A": "-9.945 & -84.19", "B": "-10.55 & -10.05"}
{"compound": "Cc1nn(C)c(C)c1C1CCCN1C(=O)c1ccc2nnc(C)n2c1", "stereo": "centres unmarked", "A": 4.745, "B": -1.416}
{"compound": "O=C(c1cccc2ccnn12)N1CCCC1Cn1cccn1", "stereo": "centres unmarked", "A": -2.279, "B": 22.64}
{"compound": "C[C@@H]1CN2C[C@H](O)CC2CN1Cc1ccncc1", "stereo": "some centres unmarked", "A": -2.192, "B": 10.24}
{"compound": "CN(C)CCNCCC(c1ccccc1)C1CCOC(C)(C)C1.O=C(O)C(=O)O", "stereo": "centres unmarked", "A": -17.56, "B": "0.4264 & 9.54"}
{"compound": "O=C(NC1CCN(Cn2nc(-c3ccccc3)oc2=O)CC1)C1CC1", "A": -20.73, "B": "-14.71 & 6.815"}
{"compound": "Cc1nonc1C1CCCN1C(=O)c1cn2ccsc2n1", "stereo": "centres unmarked", "A": -15.46, "B": 2.916}
{"compound": "CN(C)C(=O)N1CCn2c(Cn3cccn3)cnc2C1", "A": -7.655, "B": 0.9904}
{"compound": "COC(=O)C1CCCN1CC(=O)NCc1ccc(OCC(N)=O)cc1", "stereo": "centres unmarked", "A": -6.837, "B": -5.861}
{"compound": "[H][C@@]12CN(c3cnccn3)C[C@]1([H])N(CCCc1ccc(F)cc1)C(=O)O2", "A": 17.06, "B": 18.63}
{"compound": "Cn1cnc2c1CCN(CCOc1ccc(C#N)cc1)C2", "A": -6.953, "B": 1.17}
{"compound": "COc1ccc(NC(=O)N2CCN(c3ncccn3)CC2)cn1", "A": -13.47, "B": "-0.5931 & -17.12"}
{"compound": "O=C(O)C(F)(F)F.[H][C@@]12CCN(C3CCOCC3)C[C@]1([H])O[C@@H](C(=O)N(C)C)C2", "A": 12.21, "B": 15.94}
{"compound": "CC(C)CN(CCc1ccccc1)Cc1nc2c(cnn2C)c(=O)[nH]1", "A": -2.386, "B": 3.387}
{"compound": "COc1ccc(C(C)NCc2nnc(C)s2)cc1F", "stereo": "centres unmarked", "A": 11.53, "B": "-0.8315 & -1.412"}
{"compound": "CCc1nnc(NC(=O)c2c3c(nn2C2CCS(=O)(=O)C2)CCC3)s1", "stereo": "centres unmarked", "A": 5.738, "B": 47.97}
{"compound": "Cn1cnc(S(=O)(=O)N2CCCCc3ccccc32)c1", "A": 3.91, "B": 10.64}
{"compound": "Cc1cnc(N2CCOC3(CCCN(c4ncccn4)C3)C2)nc1", "stereo": "centres unmarked", "A": -10.58, "B": "-2.367 & -24.95"}
{"compound": "CN(Cc1ccco1)Cc1ccccc1CNC(=O)c1cnc[nH]1", "A": 1.845, "B": "-5.19 & -2.638"}
{"compound": "Cc1nc2ccc(CN3CC4(CCOC4)CCC3=O)cc2[nH]1", "stereo": "centres unmarked", "A": -4.916, "B": 8.955}
{"compound": "CN(C)[C@@H]1CCN(C(=O)c2ccsc2)[C@H]1Cc1cnn(C)c1", "A": 0.9459, "B": 36.1}
{"compound": "COCCN1CCN(Cc2cccc(OCC(N)=O)c2)CC1C", "stereo": "centres unmarked", "A": -29.73, "B": -18.34}
{"compound": "[H][C@@]12CCN(C)[C@@]1([H])CCN2Cc1ccc2c(c1)OCO2", "A": -7.165, "B": 6.133}
{"compound": "CC1CCCCN1C(=O)c1cn(-c2ccc(C(F)(F)F)cn2)nn1", "stereo": "centres unmarked", "A": 4.394, "B": -22.6}
{"compound": "CCc1cnc(CN(C(C)=O)C2CCN(CC(=O)N3CCCC3)C2)o1", "stereo": "centres unmarked", "A": 4.066, "B": -24.95}
{"compound": "COc1cc(C)nc(N2CCN(Cc3nccn3C)CC2)n1", "A": -5.428, "B": "7.908 & 13.93"}
{"compound": "CC(C)(C)C(=O)NCCC(=O)NC(C)(C)c1ccc2c(c1)OCO2", "A": -0.7548, "B": -11.74}
{"compound": "Cc1cc(C)n(C2CCCN(C(=O)c3c(C)noc3C)C2)n1", "stereo": "centres unmarked", "A": 5.161, "B": 13.64}
{"compound": "CN1CC[C@]2(CN(Cc3cccs3)C[C@H]2c2ccccc2)C1=O", "A": -11.48, "B": -5.877}
{"compound": "CCN1C(=O)C2(CCCCC2)NC1c1cc(C#N)n(C)c1C", "stereo": "centres unmarked", "A": -1.477, "B": 8.417}
{"compound": "Cc1cccc(CNC(=O)CC2CCN(S(C)(=O)=O)CC2)n1", "A": 5.446, "B": -0.2022}
{"compound": "Cc1ccc(CNc2ccn(CCC(N)=O)n2)c(Br)c1", "A": 11.2, "B": "15.98 & 21.4"}

For reference, 3 entries once more:

{"compound": "O=C(c1cccc2ccnn12)N1CCCC1Cn1cccn1", "stereo": "centres unmarked", "A": -2.279, "B": 22.64}
{"compound": "CC(C)CN(CCc1ccccc1)Cc1nc2c(cnn2C)c(=O)[nH]1", "A": -2.386, "B": 3.387}
{"compound": "COc1ccc(C(C)NCc2nnc(C)s2)cc1F", "stereo": "centres unmarked", "A": 11.53, "B": "-0.8315 & -1.412"}